Experimental data reported in the supplement of paper PMC10849652.
Some of the results follow.

By UniProt entry, the sequences of proteins in these tests, tags left out. Where a name states a change or a piece, a line headed by the entry shows the natural chain unless it says otherwise.
UniProt Q9NVU0: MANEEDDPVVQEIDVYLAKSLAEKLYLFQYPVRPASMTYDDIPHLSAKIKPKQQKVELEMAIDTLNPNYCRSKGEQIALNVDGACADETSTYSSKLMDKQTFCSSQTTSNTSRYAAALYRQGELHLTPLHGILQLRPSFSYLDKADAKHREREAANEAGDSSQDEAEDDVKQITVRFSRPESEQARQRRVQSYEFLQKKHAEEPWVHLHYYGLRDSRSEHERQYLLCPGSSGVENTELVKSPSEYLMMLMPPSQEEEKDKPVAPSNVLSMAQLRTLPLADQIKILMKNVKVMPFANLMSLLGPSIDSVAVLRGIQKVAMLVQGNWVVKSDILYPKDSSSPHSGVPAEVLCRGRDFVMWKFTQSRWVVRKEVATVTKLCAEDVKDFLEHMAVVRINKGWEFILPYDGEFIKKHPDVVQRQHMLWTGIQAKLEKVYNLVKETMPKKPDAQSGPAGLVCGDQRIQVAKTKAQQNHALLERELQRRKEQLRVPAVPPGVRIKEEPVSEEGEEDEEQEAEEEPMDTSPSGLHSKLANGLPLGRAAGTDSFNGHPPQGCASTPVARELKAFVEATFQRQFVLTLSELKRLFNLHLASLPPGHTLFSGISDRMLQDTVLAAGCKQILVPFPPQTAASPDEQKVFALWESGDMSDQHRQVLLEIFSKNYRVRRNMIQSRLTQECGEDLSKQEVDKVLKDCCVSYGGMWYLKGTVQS
UniProt Q969H6: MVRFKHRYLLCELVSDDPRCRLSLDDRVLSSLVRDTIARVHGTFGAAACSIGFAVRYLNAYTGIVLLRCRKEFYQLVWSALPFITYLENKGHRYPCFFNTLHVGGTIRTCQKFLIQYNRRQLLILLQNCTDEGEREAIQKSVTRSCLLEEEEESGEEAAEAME
UniProt O60568: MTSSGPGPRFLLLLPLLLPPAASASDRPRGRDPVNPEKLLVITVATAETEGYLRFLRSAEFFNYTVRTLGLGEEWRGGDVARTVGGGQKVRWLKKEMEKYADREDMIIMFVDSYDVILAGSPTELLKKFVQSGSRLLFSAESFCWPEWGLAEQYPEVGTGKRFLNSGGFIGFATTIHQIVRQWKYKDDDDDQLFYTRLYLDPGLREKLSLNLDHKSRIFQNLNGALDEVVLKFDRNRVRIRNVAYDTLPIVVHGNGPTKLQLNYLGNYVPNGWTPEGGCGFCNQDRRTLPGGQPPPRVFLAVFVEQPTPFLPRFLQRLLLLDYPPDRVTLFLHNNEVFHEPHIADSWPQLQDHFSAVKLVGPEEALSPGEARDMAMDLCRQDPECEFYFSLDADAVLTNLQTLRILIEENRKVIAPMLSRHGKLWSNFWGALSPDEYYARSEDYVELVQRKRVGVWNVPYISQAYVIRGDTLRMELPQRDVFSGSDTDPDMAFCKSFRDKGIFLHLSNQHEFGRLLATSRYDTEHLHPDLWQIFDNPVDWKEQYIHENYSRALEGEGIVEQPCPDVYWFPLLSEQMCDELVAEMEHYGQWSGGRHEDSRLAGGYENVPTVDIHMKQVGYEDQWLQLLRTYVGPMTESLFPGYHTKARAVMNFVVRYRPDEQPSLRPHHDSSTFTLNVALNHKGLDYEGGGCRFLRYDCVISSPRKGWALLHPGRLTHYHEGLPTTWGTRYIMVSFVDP
UniProt Q9H9Y6, whole entry, looked up: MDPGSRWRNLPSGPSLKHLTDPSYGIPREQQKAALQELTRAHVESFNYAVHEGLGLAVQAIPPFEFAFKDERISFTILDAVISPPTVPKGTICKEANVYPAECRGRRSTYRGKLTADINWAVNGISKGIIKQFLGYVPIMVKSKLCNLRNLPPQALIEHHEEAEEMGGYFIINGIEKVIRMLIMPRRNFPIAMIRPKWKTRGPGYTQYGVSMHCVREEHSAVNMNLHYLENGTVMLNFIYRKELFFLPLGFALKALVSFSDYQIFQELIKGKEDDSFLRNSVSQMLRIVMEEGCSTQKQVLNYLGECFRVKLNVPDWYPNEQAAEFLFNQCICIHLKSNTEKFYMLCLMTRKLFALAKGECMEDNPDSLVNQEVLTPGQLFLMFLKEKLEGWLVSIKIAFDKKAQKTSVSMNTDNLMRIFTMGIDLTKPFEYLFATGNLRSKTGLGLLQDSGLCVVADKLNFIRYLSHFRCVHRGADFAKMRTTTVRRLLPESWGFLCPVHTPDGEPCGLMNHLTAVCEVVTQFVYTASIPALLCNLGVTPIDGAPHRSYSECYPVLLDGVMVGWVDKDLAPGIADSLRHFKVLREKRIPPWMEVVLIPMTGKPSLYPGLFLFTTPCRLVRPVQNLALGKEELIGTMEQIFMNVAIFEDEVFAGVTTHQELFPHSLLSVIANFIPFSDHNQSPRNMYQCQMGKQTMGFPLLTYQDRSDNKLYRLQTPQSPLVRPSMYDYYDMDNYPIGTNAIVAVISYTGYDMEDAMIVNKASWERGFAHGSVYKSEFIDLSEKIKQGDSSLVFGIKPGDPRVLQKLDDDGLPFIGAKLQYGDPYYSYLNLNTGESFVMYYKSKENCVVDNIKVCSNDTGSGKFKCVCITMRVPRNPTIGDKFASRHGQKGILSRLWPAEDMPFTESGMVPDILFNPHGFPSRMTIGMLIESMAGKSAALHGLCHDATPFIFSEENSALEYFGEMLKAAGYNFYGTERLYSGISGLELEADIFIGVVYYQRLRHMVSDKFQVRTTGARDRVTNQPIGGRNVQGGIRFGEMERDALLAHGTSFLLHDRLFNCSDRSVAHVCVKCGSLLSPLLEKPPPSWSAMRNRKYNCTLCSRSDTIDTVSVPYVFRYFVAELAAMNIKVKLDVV
UniProt Q15165: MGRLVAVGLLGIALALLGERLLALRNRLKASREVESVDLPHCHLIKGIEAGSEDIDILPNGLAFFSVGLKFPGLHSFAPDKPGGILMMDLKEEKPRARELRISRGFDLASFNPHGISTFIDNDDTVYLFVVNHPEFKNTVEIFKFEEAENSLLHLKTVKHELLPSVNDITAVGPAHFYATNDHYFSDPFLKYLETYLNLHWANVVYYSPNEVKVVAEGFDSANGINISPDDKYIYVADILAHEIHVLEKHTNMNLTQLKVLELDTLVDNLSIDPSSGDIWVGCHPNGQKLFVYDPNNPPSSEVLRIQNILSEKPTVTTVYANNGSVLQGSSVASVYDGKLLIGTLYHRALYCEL
UniProt Q6UW63: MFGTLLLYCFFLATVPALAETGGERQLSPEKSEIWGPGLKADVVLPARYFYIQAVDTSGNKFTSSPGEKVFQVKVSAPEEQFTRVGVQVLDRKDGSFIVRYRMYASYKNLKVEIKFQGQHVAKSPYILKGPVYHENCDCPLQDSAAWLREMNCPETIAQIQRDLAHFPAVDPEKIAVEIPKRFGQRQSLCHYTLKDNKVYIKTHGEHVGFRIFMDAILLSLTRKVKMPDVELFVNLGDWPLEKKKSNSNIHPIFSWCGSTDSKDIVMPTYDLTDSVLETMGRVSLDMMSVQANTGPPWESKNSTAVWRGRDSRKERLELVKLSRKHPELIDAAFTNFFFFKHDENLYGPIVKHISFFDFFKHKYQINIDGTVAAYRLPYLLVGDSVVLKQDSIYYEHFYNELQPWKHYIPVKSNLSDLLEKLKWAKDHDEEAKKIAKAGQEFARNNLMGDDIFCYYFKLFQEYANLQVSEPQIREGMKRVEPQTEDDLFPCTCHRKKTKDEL
UniProt Q9UIW2: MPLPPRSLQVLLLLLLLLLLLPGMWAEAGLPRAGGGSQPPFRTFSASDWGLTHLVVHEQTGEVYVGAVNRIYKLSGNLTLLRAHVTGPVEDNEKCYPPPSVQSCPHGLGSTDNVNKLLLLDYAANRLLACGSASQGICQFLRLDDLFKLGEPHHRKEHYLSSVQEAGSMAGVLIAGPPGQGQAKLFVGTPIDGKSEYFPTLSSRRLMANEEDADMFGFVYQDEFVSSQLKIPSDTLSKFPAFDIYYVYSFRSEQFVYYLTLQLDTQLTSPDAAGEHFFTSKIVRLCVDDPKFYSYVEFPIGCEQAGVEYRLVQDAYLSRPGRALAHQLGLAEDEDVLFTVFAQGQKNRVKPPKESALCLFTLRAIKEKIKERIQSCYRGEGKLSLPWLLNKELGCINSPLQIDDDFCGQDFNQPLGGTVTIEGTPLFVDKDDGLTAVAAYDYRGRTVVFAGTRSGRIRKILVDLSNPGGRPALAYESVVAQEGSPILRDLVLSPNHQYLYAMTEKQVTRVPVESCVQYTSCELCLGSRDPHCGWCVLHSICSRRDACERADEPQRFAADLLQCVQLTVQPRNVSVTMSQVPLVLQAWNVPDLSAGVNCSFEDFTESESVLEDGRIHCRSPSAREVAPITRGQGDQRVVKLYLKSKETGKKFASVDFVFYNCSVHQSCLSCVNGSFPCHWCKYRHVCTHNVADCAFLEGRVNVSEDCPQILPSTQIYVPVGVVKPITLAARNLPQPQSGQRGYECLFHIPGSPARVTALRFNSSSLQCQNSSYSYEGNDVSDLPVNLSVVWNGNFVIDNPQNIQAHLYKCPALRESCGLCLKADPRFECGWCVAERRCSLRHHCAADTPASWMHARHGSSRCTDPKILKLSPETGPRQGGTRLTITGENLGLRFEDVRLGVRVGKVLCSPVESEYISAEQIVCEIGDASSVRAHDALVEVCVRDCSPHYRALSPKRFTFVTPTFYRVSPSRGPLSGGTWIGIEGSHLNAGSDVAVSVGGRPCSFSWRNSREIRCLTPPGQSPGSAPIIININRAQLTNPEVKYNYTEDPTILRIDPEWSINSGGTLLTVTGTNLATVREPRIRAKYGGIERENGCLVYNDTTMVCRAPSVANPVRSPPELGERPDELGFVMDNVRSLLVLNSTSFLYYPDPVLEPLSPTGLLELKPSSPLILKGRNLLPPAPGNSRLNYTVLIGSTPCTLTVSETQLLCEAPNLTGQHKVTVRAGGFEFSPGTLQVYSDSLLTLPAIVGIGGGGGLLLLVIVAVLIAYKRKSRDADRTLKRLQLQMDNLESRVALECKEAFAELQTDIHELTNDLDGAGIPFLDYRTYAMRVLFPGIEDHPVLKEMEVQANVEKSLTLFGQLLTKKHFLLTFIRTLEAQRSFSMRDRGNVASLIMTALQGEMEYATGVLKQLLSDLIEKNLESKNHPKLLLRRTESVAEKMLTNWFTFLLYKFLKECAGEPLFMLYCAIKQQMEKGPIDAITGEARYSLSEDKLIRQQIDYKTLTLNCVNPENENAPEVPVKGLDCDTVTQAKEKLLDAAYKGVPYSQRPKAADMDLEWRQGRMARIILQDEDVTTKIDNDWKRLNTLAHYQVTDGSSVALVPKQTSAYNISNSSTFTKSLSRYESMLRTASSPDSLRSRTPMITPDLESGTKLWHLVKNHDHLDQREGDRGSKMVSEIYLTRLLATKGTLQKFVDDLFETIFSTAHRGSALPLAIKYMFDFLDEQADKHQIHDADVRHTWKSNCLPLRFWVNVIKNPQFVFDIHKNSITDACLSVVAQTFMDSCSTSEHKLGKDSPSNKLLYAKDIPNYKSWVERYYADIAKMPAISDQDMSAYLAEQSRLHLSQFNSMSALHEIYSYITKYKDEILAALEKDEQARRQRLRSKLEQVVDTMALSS
UniProt O75817: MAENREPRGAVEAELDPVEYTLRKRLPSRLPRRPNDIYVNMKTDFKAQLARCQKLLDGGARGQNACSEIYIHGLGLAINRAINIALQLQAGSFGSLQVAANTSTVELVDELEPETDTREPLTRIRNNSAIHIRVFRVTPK
UniProt O15160, whole entry, looked up: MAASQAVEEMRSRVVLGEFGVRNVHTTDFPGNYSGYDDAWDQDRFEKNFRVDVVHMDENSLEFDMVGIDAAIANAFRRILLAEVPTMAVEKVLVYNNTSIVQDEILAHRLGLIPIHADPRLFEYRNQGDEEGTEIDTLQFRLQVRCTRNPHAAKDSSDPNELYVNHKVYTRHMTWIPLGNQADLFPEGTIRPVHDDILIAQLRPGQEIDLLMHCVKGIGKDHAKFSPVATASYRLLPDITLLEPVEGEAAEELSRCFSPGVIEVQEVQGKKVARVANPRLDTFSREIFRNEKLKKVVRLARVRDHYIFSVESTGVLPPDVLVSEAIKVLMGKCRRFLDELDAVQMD
UniProt Q9NRF9: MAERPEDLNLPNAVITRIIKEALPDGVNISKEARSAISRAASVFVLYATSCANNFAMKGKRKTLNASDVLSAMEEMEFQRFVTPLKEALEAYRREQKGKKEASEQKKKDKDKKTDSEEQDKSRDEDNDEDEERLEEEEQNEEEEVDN
UniProt P49005: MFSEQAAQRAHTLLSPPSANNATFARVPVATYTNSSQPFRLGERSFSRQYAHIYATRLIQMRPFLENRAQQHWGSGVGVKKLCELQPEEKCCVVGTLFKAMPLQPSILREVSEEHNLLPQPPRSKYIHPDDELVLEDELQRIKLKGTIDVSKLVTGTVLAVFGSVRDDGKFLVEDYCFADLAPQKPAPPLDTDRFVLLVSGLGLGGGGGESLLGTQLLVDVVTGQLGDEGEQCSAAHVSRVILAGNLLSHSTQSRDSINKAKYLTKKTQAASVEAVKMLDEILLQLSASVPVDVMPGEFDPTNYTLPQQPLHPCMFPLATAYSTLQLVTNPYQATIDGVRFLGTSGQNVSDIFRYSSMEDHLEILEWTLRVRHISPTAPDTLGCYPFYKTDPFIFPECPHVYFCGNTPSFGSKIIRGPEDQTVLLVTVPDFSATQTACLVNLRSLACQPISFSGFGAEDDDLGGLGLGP

Key:
Test in all cases: log2 fold change, soluble protein after heating vs DMSO (PISA); higher = thermal stabilisation; K562 cells, 10 uM, 30 min; active = over 0.2 and 3.5 SD of the protein, either way, in both replicates (recomputed)
[1] = compound: CS(=O)(=O)c1ccc(-c2cnc(N)c(C(=O)Nc3ccccc3)n2)cc1
Method in brief: (§1)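 Aliquots of K562 cells (2×10^6 cells/mL) treated with 10 μM compound for 30 min were heated for 3 min over 48°C-58°C. After pooling and extraction in PBS with 0.5% NP-40 at 4°C, soluble protein from a 21,000xg, 90 min spin was quantified by TMTpro 16plex LC-MS/MS with channel sums equalised. Thermal stability is expressed against control samples, from duplicates, as a log2 fold change.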

crizotinib = compound: C[C@@H](Oc1cc(-c2cnn(C3CCNCC3)c2)cnc1N)c1c(Cl)ccc(F)c1Cl [crizotinib]
Method in brief: as §1

[2] = compound: C[C@@H]1COCCN1C2=NC(=NC(=C2)C3(CC3)S(=O)(=O)C)C4=C5C=CNC5=CC=C4
Method in brief: as §1

[3] = compound: C[C@H](C1=CC=C(C=C1)C(=O)NC2=C3C=CNC3=NC=C2)N
Method in brief: as §1

duvelisib = compound: C[C@H](Nc1ncnc2nc[nH]c12)c1cc2cccc(Cl)c2c(=O)n1-c1ccccc1 [duvelisib]
Method in brief: as §1

gandotinib = compound: Cc1cc(Nc2cc(CN3CCOCC3)c3nc(C)c(Cc4ccc(Cl)cc4F)n3n2)n[nH]1 [gandotinib]
Method in brief: as §1

tozasertib = compound: Cc1cc(Nc2cc(N3CCN(C)CC3)nc(Sc3ccc(NC(=O)C4CC4)cc3)n2)n[nH]1 [tozasertib]
Method in brief: as §1

[4] = compound: Cc1cc(SCc2sc(-c3ccc(C(F)(F)F)cc3)nc2C)ccc1OCC(=O)O
Method in brief: as §1

doramapimod = compound: Cc1ccc(-n2nc(C(C)(C)C)cc2NC(=O)Nc2ccc(OCCN3CCOCC3)c3ccccc23)cc1 [doramapimod]
Method in brief: as §1

ispinesib = compound: Cc1ccc(C(=O)N(CCCN)[C@@H](c2nc3cc(Cl)ccc3c(=O)n2Cc2ccccc2)C(C)C)cc1 [ispinesib]
Method in brief: as §1

Measured: log2 fold change

POLR3E (UniProt Q9NVU0)
inactive: [1] 0.122 | crizotinib 0.002 | [2] 0.004 | [3] 0.122 | duvelisib -0.047 | gandotinib -0.084 | tozasertib -0.019 | [4] 0.139 | doramapimod 0.066 | ispinesib -0.106

POMGNT1 isoform 2 (UniProt Q8WZA1)
inactive: [1] 0.113 | crizotinib -0.011 | [2] 0.036 | [3] 0.122 | duvelisib 0.08 | gandotinib 0.012 | tozasertib -0.067 | [4] -0.108 | doramapimod 0.013 | ispinesib -0.186

POP5 (UniProt Q969H6)
inactive: [1] -0.006 | crizotinib 0.063 | [2] -0.004 | [3] -0.036 | duvelisib -0.031 | gandotinib 0.131 | tozasertib 0.093 | [4] -0.104 | doramapimod 0.003 | ispinesib 0.045

PLOD1 isoform 2 (UniProt Q02809)
inactive: [1] 0.043 | crizotinib 0.045 | [2] -0.126 | [3] 0.148 | duvelisib -0.052 | gandotinib 0.127 | tozasertib 0.027 | [4] 0.053 | doramapimod 0.074 | ispinesib -0.032

PPA2 (UniProt Q9H2U2)
inactive: [1] 0.063 | crizotinib -0.014 | [2] 0.075 | [3] -0.062 | duvelisib 0.058 | gandotinib -0.006 | tozasertib -0.008 | [4] -0.014 | doramapimod -0.064 | ispinesib 0.051

PLOD3 (UniProt O60568)
inactive: [1] 0.017 | crizotinib 0.055 | [2] -0.058 | [3] 0.104 | duvelisib -0.015 | gandotinib 0.071 | tozasertib 0.015 | [4] -0.005 | doramapimod 0.05 | ispinesib -0.008

PODXL2 (UniProt Q9NZ53)
inactive: [1] -0.16 | crizotinib -0.024 | [2] -0.008 | [3] -0.003 | duvelisib 0.079 | gandotinib -0.07 | tozasertib 0.099 | [4] 0.014 | doramapimod 0.014 | ispinesib 0.007

PNO1 (UniProt Q9NRX1)
inactive: [1] -0.022 | crizotinib -0.083 | [2] -0.214 | [3] 0.364 | duvelisib -0.138 | gandotinib 0.06 | tozasertib 0.091 | [4] 0.055 | doramapimod 0.1 | ispinesib -0.214

POLR1B isoform 3 (UniProt Q9H9Y6)
inactive: [1] 0.048 | crizotinib -0.014 | [2] 0.08 | [3] 0.292 | duvelisib -0.065 | gandotinib -0.061 | tozasertib -0.012 | [4] 0.043 | doramapimod 0.133 | ispinesib 0.009

POTEF (UniProt A5A3E0)
inactive: [1] 0.004 | crizotinib 0.034 | [2] -0.011 | [3] 0 | duvelisib 0.115 | gandotinib 0.065 | tozasertib -0.007 | [4] -0.004 | doramapimod 0.005 | ispinesib 0.015

PON2 (UniProt Q15165)
inactive: [1] 0.004 | crizotinib 0.033 | [2] -0.053 | [3] 0.031 | duvelisib 0.051 | gandotinib 0.02 | tozasertib 0.044 | [4] 0 | doramapimod 0.077 | ispinesib -0.073

POGLUT2 (UniProt Q6UW63)
inactive: [1] 0.003 | crizotinib 0.015 | [2] -0.034 | [3] 0.062 | duvelisib -0.033 | gandotinib 0.044 | tozasertib -0.019 | [4] 0.026 | doramapimod 0.034 | ispinesib -0.026

Copied from above (2 entries):
PPA2 (UniProt Q9H2U2)
inactive: [1] 0.063 | crizotinib -0.014 | [2] 0.075 | [3] -0.062 | duvelisib 0.058 | gandotinib -0.006 | tozasertib -0.008 | [4] -0.014 | doramapimod -0.064 | ispinesib 0.051

PLOD3 (UniProt O60568)
inactive: [1] 0.017 | crizotinib 0.055 | [2] -0.058 | [3] 0.104 | duvelisib -0.015 | gandotinib 0.071 | tozasertib 0.015 | [4] -0.005 | doramapimod 0.05 | ispinesib -0.008

Continued:

POLG (UniProt P54098)
inactive: [1] -0.006 | crizotinib 0.05 | [2] -0.053 | [3] 0.047 | duvelisib 0.167 | gandotinib 0.011 | tozasertib 0.155 | [4] -0.036 | doramapimod -0.016 | ispinesib -0.167

PLPBP (UniProt O94903)
inactive: [1] 0.063 | crizotinib 0.111 | [2] -0.049 | [3] -0.013 | duvelisib 0.013 | gandotinib 0.054 | tozasertib -0.02 | [4] 0.115 | doramapimod -0.018 | ispinesib -0.022

PLXNA1 (UniProt Q9UIW2)
inactive: [1] 0.023 | crizotinib 0.048 | [2] 0.085 | [3] -0.034 | duvelisib 0.051 | gandotinib -0.089 | tozasertib -0.035 | [4] -0.031 | doramapimod -0.001 | ispinesib 0.084

POP7 (UniProt O75817)
inactive: [1] -0.076 | crizotinib -0.017 | [2] 0.169 | [3] 0.003 | duvelisib -0.039 | gandotinib 0.244 | tozasertib 0.01 | [4] 0.022 | doramapimod 0.038 | ispinesib -0.186

POLR3GL (UniProt Q9BT43)
inactive: [1] 0.076

PPIB (UniProt P23284)
inactive: [1] 0.026 | crizotinib 0.054 | [2] -0.067 | [3] 0.07 | duvelisib -0.046 | gandotinib 0.019 | tozasertib 0.017 | [4] 0.014 | doramapimod 0.032 | ispinesib -0.013

PPFIA2 (UniProt O75334)
inactive: [1] 0.048 | crizotinib -0.102 | [2] -0.016 | [3] 0.228 | duvelisib 0.031 | gandotinib 0.021 | tozasertib -0.11 | [4] 0.114 | doramapimod 0.063 | ispinesib -0.066

PLS1 (UniProt Q14651)
inactive: [1] 0.015 | crizotinib -0.048 | [2] 0.044 | [3] 0.001 | duvelisib 0.06 | gandotinib -0.024 | tozasertib 0.004 | [4] 0.034 | doramapimod -0.032 | ispinesib 0.026

POLDIP2 (UniProt Q9Y2S7)
inactive: [1] 0.009 | crizotinib 0.169 | [2] 0.099 | [3] -0.101 | duvelisib 0.071 | gandotinib -0.043 | tozasertib 0.015 | [4] 0.007 | doramapimod -0.051 | ispinesib 0.082

POLR1C (UniProt O15160)
inactive: [1] 0.064 | crizotinib 0.083 | [2] 0.019 | [3] 0 | duvelisib -0.043 | gandotinib 0.009 | tozasertib 0.108 | [4] 0.175 | doramapimod 0.058 | ispinesib -0.154

PNPT1 (UniProt Q8TCS8)
inactive: [1] 0 | crizotinib 0.11 | [2] 0.066 | [3] -0.008 | duvelisib 0.07 | gandotinib -0.107 | tozasertib 0.011 | [4] 0.051 | doramapimod -0.057 | ispinesib 0.071

POLR3G (UniProt O15318)
inactive: [1] -0.039 | crizotinib 0.058 | [2] -0.028 | [3] -0.078 | duvelisib 0.008 | gandotinib -0.007 | tozasertib 0.045 | [4] 0.006 | doramapimod -0.039 | ispinesib -0.013

POFUT1 (UniProt Q9H488)
inactive: [1] 0.026 | crizotinib 0.079 | [2] 0.03 | [3] 0.059 | duvelisib 0.008 | gandotinib 0.051 | tozasertib -0.014 | [4] -0.018 | doramapimod -0.017 | ispinesib 0.03

POLE3 (UniProt Q9NRF9)
inactive: [1] -0.005 | crizotinib -0.017 | [2] 0.014 | [3] -0.031 | duvelisib 0.071 | gandotinib 0.019 | tozasertib -0.025 | [4] 0.08 | doramapimod -0.003 | ispinesib 0.102

PPA1 (UniProt Q15181)
inactive: [1] 0.056 | crizotinib -0.053 | [2] 0.045 | [3] -0.054 | duvelisib 0.053 | gandotinib 0.03 | tozasertib -0.012 | [4] -0.002 | doramapimod 0.046 | ispinesib 0

POLD2 (UniProt P49005)
inactive: [1] -0.016 | crizotinib -0.047 | [2] 0.019 | [3] -0.055 | duvelisib -0.017 | gandotinib -0.028 | tozasertib -0.008 | [4] 0.042 | doramapimod -0.04 | ispinesib -0.031
